The text below walks through data of article PMC5906478.

The chains behind the UniProt entries cited, without tags or fusion partners. Where a name states a change or a piece, a line headed by the entry shows the natural chain unless it says otherwise. Residues count along the entry.
UniProt Q07021, residues 74-282: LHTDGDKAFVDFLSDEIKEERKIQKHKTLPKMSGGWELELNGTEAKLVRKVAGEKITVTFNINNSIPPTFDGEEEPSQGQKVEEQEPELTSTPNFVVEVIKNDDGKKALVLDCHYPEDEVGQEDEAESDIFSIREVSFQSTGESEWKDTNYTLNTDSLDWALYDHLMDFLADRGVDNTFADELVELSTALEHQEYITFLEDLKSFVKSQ
UniProt P67809: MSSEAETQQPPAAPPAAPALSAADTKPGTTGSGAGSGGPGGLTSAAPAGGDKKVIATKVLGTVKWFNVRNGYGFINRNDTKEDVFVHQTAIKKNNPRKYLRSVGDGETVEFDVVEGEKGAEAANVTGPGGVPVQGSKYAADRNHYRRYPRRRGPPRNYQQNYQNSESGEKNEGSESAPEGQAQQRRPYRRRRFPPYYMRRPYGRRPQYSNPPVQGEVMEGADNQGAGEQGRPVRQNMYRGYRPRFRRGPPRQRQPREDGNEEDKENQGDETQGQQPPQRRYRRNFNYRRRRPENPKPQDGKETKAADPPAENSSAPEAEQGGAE
UniProt Q92973: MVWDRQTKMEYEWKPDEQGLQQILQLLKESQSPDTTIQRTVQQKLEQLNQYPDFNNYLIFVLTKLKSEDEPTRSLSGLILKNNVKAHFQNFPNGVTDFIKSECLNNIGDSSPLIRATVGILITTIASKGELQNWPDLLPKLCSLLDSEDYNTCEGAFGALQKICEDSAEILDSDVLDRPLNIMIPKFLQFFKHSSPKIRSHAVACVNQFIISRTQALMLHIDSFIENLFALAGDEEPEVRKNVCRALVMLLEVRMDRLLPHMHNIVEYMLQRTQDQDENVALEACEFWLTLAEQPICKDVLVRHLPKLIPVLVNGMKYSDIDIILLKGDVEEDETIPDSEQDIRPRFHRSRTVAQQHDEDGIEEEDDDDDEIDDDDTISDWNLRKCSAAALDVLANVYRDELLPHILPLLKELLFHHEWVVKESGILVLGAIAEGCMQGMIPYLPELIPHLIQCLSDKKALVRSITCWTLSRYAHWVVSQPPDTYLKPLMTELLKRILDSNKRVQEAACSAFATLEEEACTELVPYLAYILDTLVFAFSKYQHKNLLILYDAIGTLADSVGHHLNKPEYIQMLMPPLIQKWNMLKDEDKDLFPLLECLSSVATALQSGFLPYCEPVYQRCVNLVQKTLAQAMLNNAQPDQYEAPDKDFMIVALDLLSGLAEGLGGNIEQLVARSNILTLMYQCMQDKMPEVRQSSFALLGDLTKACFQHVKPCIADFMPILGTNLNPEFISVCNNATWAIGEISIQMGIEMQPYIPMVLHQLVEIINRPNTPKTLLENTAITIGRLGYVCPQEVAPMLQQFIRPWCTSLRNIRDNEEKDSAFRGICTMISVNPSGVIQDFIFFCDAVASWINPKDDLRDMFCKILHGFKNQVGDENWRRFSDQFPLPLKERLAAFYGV

The target in experiment [1] is GST-YBAP1 (UniProt Q07021). The experiment in a line: pull-down; FLAG-tagged YB-1 and fragments translated in wheat germ extract, incubated with 4 μg GST or GST-YBAP1 in 450 μl buffer E (50 mM Tris-HCl pH 7.5, 150 mM NaCl, 20 mM EDTA, 0.5% Nonidet P-40), 15 min 30 °C then 20 min on ice; glutathione-Sepharose 1 h 4 °C; anti-FLAG immunoblot; only the target purified.
Experiment [2] addresses YB-1 (endogenous, HeLa cells) (human (endogenous in HeLa)) (UniProt P67809). The experiment in a line: co-IP; HeLa S3 cell lysates in buffer A (50 mM Tris-HCl pH 7.5, 150 mM NaCl, 5 mM MgCl2, 0.5% Nonidet P-40), treated with or without RNase A; anti-YB-1 IgG or control rabbit IgG on protein G-Sepharose, 1 h at 4 °C; eluted with antigen peptide; immunoblot. In general terms: Immunoblotting shows a protein as a band on a membrane.

Experiment [3] deals with FLAG-transportin 1 expressed in HeLa cells (pCMV-3xFLAG-TRN1) (UniProt Q92973). The experiment in a line: co-IP; HeLa cells transfected with pCMV-3xFLAG-TRN1 or empty vector; lysis in buffer C with 0.5% SDS, sonicated; anti-FLAG M2 affinity gel 2 h at 4 °C; eluted with 3xFLAG peptide; immunoblot for YB-1 and FLAG.
Experiment [4] addresses FLAG-transportin 1 (recombinant protein) (UniProt Q92973). The experiment in a line: co-IP; recombinant YB-1-His and FLAG-transportin 1 with increasing amounts of GST-YBAP1 in 200 μl buffer D (buffer A with 1% BSA), on ice 20 min; anti-FLAG M2 affinity gel 1 h 4 °C; eluted with 3xFLAG peptide; immunoblot; both purified.
For experiment [5], the target named is GST-YBAP1 (UniProt Q07021). The experiment in a line: pull-down; recombinant YB-1-His with GST-YBAP1 or GST and increasing amounts of FLAG-transportin 1 in buffer D (buffer A with 1% BSA), on ice 20 min; glutathione-Sepharose 1 h 4 °C; eluted with 20 mM glutathione; immunoblot; both purified.

No constants are given. Whether binding was seen depends on the method and setting. For some of these results: Binding seen in cells or lysates may run through a third protein. Some binding calls cover weakened binding; strength is not graded here.

In the case of “Full-length YB-1 (wild-type, WT), C-terminally FLAG-tagged, in vitro translated (from UniProt P67809 1-324)”, the binding result in the experiment with GST-YBAP1 [1] was “binds”.
Consider “Y-box protein-associated acidic protein YBAP1/C1QBP (endogenous, HeLa cells) (from UniProt Q07021 74-282)”, for which the binding entry in experiment [2] is listed as “binds”.
“YB-1 (endogenous, HeLa cells) (from UniProt P67809 1-324)”: the binding result in experiment [3] is on record as “binds”.
With “YB-1 C2 region (first two alternating A/B regions), C-terminally FLAG-tagged, in vitro translated (from UniProt P67809 129-229) (domain or fragment)”, the binding entry with GST-YBAP1 [1] is given as “binds”.
The same measure, in the same setting: then “YB-1 cold shock domain (CSD), C-terminally FLAG-tagged, in vitro translated (from UniProt P67809 61-125) (domain or fragment)”, with “no binding (tested: 4 μg of GST-YBAP1 in 450 μl)”.
With YB-1-His (from UniProt P67809 1-324), the binding result (in experiment [4]; with GST-YBAP1 [5]) was “binds” in each case.
